Measured values reported in publication PMC10874388, “Cyclic peptides discriminate BCL-2 and its clinical mutants from BCL-XL by engaging a single-residue discrepancy” (Nature Communications, 2024).
These are yes or no findings as the source states them, for the method shown. Some entries that bind do so weakly or less than the wild type.

By UniProt entry, the sequences of proteins in these tests, tags left out. Where a name states a change or a piece, a line headed by the entry shows the natural chain unless it says otherwise. Chains listed by the source or under a name are the forms on record and can include a tag or linker. Residues count along the entry.
UniProt Q07820, residues 152-308: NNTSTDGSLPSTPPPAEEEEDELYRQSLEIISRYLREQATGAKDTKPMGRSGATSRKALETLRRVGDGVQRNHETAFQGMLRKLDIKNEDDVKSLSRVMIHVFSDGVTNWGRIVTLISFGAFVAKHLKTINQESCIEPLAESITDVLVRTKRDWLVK
human BCL-XL (residues 1-210, with 27-81 and 210-233 removed) (Q07817, form named): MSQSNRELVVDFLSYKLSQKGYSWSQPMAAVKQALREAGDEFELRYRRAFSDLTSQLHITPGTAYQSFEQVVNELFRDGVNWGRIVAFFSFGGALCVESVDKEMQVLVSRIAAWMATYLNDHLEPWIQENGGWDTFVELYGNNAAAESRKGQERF
UniProt P10415: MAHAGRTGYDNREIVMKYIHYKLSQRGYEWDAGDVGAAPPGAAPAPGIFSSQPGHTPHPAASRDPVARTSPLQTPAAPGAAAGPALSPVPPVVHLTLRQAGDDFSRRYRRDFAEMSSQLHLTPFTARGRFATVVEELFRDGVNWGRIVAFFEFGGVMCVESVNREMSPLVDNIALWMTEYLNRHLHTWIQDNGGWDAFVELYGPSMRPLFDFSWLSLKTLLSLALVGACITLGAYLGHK

T1: BFL-1 (residues 1-151) (human) (UniProt Q16548)
T1 sequence (chain, biotin (biotinylated for SPR; site not stated)): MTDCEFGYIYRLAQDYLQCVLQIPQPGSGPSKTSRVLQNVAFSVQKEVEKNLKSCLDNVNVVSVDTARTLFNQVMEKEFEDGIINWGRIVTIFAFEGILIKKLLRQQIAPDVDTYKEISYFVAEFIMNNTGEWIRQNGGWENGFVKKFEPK


How the values were obtained:
[1] = molecular target: T1, BFL-1 (residues 1-151) (human); assay: SPR; Biacore T200; biotinylated proteins immobilised on a CAP sensor chip; peptides flowed in multiple cycles (25-12800 nM, depending on the peptides) at 30 uL/min; 10 mM PBS, 50 uM EDTA, 0.05% Tween-20, 25 °C; affinity fitting, 1:1 binding model; both purified
[2] = molecular target: MCL-1 (residues 152-308) (human) (UniProt Q07820); assay: as above
[3] = molecular target: human BCL-XL (residues 1-210, with 27-81 and 210-233 removed) (human) (UniProt Q07817); assay: fluorescence polarisation; competition: cp2-F/BCL-2 complexes (20/400 nM) or cp3-F/BCL-XL complexes (20/600 nM) treated with unlabelled peptides from 1.0 nM to 30.0 uM; 1x PBS pH 7.4, room temperature, 10 min; Ki calculated from EC50, one-site competitive model; both purified
[4] = molecular target: chimeric human BCL-2 (residues 1-50 and 92-207, residues 35-50 replaced with residues 33-48 of BCL-XL) (human) (UniProt P10415+Q07817); assay: as above

Row | binding [3] | binding [4] | Binder | binding [1] | binding [2]
1 | – | – | CPIRYEWDEFC (cyclised through a 2-aryl-4,5-dihydrothiazole (ADT) linker (cADT)) [cp2] | no binding (tested: 25-12800 nM, depending on the peptides) | no binding (tested: 25-12800 nM, depending on the peptides)
2 | – | – | CPIRYPWDVEC (cyclised through a 2-aryl-4,5-dihydrothiazole (ADT) linker (cADT)) [cp3] | no binding (tested: 25-12800 nM, depending on the peptides) | no binding (tested: 25-12800 nM, depending on the peptides)
3 | binds | – | CPIRYPWDVECGK (FITC on the amino group of the C-terminal lysine; modified by ClAc-3) [cp3-F] | – | –
4 | – | binds | CPIRYEWDEFCGK (FITC on the amino group of the C-terminal lysine; modified by ClAc-3) [cp2-F] | – | –
